Source: the supplement of paper PMC10849652
The other results are listed elsewhere or left out.

By UniProt entry, the sequences of proteins in these tests, tags left out. Where a name states a change or a piece, a line headed by the entry shows the natural chain unless it says otherwise.
UniProt Q92558: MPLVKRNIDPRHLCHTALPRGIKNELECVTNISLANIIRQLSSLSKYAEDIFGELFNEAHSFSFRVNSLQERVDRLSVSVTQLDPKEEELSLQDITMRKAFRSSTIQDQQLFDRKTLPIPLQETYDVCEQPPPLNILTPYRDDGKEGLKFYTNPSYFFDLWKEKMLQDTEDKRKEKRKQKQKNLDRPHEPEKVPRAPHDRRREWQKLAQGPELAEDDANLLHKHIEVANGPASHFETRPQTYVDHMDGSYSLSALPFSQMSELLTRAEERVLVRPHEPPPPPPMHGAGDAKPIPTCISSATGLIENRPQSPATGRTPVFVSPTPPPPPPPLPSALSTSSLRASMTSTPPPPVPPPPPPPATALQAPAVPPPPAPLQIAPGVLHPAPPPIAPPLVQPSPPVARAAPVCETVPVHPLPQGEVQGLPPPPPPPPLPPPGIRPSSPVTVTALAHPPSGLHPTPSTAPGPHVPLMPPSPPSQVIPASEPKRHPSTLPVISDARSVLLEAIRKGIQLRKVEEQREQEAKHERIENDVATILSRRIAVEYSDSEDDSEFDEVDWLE
UniProt A6NGB9: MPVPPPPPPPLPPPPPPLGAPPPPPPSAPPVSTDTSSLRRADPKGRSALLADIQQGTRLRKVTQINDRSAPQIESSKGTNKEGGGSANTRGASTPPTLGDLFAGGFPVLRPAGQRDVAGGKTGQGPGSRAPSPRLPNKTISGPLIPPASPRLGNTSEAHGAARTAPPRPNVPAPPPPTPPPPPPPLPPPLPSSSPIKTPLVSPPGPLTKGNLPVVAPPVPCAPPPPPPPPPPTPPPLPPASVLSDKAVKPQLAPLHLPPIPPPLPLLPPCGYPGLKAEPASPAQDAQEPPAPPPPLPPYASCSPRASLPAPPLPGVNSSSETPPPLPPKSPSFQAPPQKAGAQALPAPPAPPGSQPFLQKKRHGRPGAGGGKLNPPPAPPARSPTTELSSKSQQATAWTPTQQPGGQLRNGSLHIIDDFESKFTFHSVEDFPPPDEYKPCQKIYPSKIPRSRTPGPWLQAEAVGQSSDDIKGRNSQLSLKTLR
UniProt Q6RFH5: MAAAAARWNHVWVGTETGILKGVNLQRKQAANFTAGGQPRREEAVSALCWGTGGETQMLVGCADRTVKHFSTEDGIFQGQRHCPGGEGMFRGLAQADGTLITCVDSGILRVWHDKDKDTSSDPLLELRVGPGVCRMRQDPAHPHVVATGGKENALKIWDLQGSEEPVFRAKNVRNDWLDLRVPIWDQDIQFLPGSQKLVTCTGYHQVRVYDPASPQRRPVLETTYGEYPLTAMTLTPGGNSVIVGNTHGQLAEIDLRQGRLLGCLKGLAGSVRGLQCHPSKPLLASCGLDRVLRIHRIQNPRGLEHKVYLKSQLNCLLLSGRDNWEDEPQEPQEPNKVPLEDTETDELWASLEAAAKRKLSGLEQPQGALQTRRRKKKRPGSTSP
UniProt Q14191, whole entry, looked up: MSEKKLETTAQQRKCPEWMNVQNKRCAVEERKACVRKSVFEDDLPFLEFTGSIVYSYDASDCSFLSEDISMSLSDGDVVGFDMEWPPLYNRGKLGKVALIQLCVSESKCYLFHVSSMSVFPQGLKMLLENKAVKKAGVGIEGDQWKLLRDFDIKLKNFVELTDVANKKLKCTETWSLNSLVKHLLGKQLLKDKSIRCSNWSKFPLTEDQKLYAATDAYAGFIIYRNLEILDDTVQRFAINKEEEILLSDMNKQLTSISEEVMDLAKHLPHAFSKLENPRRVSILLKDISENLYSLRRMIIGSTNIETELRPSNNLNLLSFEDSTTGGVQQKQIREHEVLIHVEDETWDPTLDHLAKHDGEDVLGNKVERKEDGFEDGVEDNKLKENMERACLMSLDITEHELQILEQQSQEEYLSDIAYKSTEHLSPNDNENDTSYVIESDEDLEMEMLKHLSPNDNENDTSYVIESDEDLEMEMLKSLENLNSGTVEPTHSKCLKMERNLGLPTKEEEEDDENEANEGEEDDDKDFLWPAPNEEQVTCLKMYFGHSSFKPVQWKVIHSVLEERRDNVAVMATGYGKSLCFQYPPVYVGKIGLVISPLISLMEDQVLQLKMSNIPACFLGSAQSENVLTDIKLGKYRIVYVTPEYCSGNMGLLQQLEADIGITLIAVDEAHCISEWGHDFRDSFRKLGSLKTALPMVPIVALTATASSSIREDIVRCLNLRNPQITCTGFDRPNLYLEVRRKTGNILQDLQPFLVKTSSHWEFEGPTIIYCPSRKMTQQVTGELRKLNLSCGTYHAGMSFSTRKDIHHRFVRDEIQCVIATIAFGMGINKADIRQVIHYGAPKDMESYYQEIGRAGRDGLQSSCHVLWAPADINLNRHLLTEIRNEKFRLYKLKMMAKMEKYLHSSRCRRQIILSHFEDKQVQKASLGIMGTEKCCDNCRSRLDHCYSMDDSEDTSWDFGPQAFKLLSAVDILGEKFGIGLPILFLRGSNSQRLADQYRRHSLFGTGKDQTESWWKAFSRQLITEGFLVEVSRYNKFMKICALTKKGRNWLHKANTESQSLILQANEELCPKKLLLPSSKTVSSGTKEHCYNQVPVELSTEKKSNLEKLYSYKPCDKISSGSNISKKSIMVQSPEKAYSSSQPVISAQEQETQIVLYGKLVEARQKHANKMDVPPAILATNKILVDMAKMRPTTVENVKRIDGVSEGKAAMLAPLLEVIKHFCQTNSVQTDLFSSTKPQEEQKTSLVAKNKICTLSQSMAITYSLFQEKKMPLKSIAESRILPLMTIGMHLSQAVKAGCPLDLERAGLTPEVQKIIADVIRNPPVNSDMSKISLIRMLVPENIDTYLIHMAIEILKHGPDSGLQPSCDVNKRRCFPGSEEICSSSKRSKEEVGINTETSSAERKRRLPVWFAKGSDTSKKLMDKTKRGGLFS
UniProt Q8IWB7: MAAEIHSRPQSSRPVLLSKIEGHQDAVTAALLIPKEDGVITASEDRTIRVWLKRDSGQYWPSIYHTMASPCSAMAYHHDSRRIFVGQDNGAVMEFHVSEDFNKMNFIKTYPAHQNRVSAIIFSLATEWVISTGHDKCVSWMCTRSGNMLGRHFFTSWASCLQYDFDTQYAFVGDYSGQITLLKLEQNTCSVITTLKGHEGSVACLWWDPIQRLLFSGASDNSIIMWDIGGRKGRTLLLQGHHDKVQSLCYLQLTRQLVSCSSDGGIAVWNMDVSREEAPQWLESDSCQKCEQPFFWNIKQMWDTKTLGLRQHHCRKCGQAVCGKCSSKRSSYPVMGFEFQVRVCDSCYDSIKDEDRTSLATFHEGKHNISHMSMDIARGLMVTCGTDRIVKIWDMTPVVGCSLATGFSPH
UniProt P23025: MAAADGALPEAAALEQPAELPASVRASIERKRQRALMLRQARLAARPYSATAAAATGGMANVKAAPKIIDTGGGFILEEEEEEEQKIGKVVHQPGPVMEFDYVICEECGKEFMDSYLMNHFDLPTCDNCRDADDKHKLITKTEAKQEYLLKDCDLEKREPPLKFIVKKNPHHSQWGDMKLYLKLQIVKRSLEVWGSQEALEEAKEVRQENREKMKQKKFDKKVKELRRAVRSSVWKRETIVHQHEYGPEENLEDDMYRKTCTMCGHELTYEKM
UniProt P57081: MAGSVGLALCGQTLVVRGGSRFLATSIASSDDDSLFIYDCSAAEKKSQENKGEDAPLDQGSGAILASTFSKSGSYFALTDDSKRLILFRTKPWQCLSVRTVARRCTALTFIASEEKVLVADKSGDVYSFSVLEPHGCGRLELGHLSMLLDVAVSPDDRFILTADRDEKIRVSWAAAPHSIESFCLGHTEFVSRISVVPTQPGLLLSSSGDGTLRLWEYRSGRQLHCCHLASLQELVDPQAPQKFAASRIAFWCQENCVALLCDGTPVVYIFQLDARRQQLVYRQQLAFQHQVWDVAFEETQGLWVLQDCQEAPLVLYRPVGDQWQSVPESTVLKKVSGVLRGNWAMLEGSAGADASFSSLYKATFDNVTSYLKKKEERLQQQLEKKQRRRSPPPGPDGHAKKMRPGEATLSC
UniProt Q9H1Z4: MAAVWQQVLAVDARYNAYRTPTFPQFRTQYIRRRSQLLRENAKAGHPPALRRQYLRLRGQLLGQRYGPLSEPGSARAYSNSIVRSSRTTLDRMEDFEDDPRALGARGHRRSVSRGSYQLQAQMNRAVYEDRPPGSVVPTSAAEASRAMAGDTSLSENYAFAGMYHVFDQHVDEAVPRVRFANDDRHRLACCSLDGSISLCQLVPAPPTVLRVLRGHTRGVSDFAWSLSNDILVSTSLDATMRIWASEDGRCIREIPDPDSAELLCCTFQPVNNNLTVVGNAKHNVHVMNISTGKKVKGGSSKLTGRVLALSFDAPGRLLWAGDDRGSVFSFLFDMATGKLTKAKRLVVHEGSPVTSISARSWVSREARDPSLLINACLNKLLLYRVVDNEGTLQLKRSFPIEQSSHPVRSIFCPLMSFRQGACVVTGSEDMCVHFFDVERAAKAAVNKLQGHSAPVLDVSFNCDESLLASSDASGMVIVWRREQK
UniProt Q9BRG1: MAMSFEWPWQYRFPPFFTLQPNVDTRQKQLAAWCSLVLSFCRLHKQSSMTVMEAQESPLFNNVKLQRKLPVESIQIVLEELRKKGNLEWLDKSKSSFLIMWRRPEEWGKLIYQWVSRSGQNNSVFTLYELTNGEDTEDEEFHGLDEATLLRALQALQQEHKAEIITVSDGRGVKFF
UniProt Q969T9: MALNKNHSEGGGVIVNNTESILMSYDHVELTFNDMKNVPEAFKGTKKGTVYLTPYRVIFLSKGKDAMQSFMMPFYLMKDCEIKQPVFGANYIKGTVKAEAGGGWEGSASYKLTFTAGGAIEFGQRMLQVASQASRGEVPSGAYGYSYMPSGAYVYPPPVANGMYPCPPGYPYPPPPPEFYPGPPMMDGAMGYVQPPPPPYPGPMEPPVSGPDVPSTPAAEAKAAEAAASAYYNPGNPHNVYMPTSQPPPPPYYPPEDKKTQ
UniProt Q8N3P4: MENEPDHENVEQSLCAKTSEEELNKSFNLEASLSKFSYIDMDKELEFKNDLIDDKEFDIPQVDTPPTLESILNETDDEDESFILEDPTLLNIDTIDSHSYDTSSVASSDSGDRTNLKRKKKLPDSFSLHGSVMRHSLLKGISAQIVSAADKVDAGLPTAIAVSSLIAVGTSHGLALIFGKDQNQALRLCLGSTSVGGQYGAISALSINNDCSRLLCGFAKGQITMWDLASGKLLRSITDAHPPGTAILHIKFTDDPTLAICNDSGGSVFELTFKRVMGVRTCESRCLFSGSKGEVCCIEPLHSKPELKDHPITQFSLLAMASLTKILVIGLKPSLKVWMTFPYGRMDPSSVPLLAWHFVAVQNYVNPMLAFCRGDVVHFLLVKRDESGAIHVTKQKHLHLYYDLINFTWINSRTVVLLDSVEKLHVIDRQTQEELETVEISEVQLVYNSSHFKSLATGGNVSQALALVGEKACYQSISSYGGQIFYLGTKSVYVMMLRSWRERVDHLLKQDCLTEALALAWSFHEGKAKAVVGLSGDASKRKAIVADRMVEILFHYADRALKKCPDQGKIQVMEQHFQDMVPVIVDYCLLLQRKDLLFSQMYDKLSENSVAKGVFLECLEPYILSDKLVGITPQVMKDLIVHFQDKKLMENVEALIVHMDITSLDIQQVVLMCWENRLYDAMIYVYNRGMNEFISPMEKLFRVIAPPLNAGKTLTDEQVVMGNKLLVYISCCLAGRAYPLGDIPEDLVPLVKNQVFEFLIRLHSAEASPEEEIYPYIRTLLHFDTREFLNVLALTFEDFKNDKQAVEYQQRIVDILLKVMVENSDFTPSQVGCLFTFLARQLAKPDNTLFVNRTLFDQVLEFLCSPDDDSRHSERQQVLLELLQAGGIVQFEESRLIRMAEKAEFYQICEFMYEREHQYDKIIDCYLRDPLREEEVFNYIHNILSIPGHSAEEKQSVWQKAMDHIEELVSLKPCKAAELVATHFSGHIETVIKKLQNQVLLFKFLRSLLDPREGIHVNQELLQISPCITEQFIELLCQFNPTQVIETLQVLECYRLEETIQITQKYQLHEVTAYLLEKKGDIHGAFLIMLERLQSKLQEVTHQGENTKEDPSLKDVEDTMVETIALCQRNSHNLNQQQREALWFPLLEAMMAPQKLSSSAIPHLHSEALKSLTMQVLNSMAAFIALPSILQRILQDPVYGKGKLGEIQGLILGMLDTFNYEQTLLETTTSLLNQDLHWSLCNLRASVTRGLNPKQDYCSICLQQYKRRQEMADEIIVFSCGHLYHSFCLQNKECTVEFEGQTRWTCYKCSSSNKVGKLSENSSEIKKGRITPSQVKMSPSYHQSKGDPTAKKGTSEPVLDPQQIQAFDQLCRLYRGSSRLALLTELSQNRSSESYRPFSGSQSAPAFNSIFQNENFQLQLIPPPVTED

Assays:
Test in all cases: log2 fold change, soluble protein after heating vs DMSO (PISA); higher = thermal stabilisation; K562 lysate, 10 uM; active = over 0.2 and 3.5 SD of the protein, either way, in both replicates (recomputed)
erlotinib = compound: C#Cc1cccc(Nc2ncnc3cc(OCCOC)c(OCCOC)cc23)c1 [erlotinib]
How it was run: (§1)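 Quantification was by TMTpro 16plex LC-MS/MS with equalised channel sums, applied to the supernatant after 21,000xg for 90 min. Samples were crude K562 extract at 1 mg/mL protein in PBS pH 7.4 with 1 mM MgCl2, treated with 10 μM compound for 30 min, heated for 3 min across 48°C-58°C, pooled and brought to 0.5% NP-40 at 4°C. Values are log-two fold changes in thermal stability relative to solvent controls, from duplicates.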

[1] = compound: C/C(=N\NC(=O)C1=CC(=CC=C1)S(=O)(=O)N2CCOCC2)/C3=C(C=CC(=C3)Cl)O
How it was run: as §1

[2] = compound: C1=CC(=CC=C1C2=NC3=C(N2)C=C(C=C3)C(=O)N)OC4=CC=C(C=C4)Cl
How it was run: as §1

[3] = compound: C1=CC2=C(C=CC(=C2)/C=C\3/C(=O)NC(=NCC4=CC=CS4)S3)N=C1
How it was run: as §1

[4] = compound: C1=CC2=NC=CN=C2C=C1/C=C/3\C(=O)NC(=O)S3
How it was run: as §1

[5] = compound: C1=CC=C(C=C1)C2=NC(=C(N2)C3=CC=NC=C3)C4=CC(=C(C=C4)Cl)O
How it was run: as §1

[6] = compound: C1=CC=C2C(=C1)C3=NNC4=CC=CC(=C43)C2=O
How it was run: as §1

[7] = compound: C1CCN(C1)C(=O)NC2=CC=CC(=C2)NC3=NC=C(C(=N3)NCCC4=CN=CN4)Br
How it was run: as §1

[8] = compound: C1CN(CCC1(CC2=CC=C(C=C2)Cl)N)C3=NC=NC4=C3C=CN4
How it was run: as §1

IRAK-1-4 Inhibitor I = compound: C1COCCN1CCN2C3=CC=CC=C3N=C2NC(=O)C4=CC(=CC=C4)[N+](=O)[O-] [IRAK-1-4 Inhibitor I]
How it was run: as §1

ibrutinib = compound: C=CC(=O)N1CCC[C@@H](n2nc(-c3ccc(Oc4ccccc4)cc3)c3c(N)ncnc32)C1 [ibrutinib]
How it was run: as §1

[9] = compound: CC(=O)c1cnc2ccc(-c3cc(Cl)c(O)c(Cl)c3)nc2c1N[C@H]1CC[C@H](CN(C)C)CC1
How it was run: as §1

ralimetinib = compound: CC(C)(C)Cn1c(N)nc2ccc(-c3[nH]c(C(C)(C)C)nc3-c3ccc(F)cc3)nc21 [ralimetinib]
How it was run: as §1

[10] = compound: CC(C)(O)CC(=O)NCCn1ccc2ncnc(Nc3ccc(Oc4cccc(C(F)(F)F)c4)c(Cl)c3)c21
How it was run: as §1

[11] = compound: CC(C)C1=C2N=C(C=C(N2N=C1)NCC3=CC=CC=C3)NCCCCCCN
How it was run: as §1

[12] = compound: CC1=C(C(CC(=O)N1)C2=CC=C(C=C2)C(F)(F)F)C(=O)NC3=C(C=C4C(=C3)C=NN4)F
How it was run: as §1

[13] = compound: CC1=C(C2=C(C=C1)C(=O)C3=CC=CC=C3N2CCCN)C
How it was run: as §1

[14] = compound: CC1=C(C=C(C=C1)NC(=O)C2=CC(=CC=C2)C(C)(C)C#N)NC3=CC4=C(C=C3)N=CN(C4=O)C
How it was run: as §1

[15] = compound: CC1=C(C=C(C=C1)NC(=O)C2=CC(=CC=C2)N(C)C)NC(=O)C3=CC=C(C=C3)O
How it was run: as §1

[16] = compound: CC1=CC=C(C=C1)SC2=C3C=C(SC3=CN=C2)C(=O)N
How it was run: as §1

| Target | log2 fold change (erlotinib) | log2 fold change [1] | log2 fold change [2] | log2 fold change [3] | log2 fold change [4] | log2 fold change [5] | log2 fold change [6] | log2 fold change [7] | log2 fold change [8] | log2 fold change (IRAK-1-4 Inhibitor I) | log2 fold change (ibrutinib) | log2 fold change [9] | log2 fold change (ralimetinib) | log2 fold change [10] | log2 fold change [11] | log2 fold change [12] | log2 fold change [13] | log2 fold change [14] | log2 fold change [15] | log2 fold change [16] |
| --- | --- | --- | --- | --- | --- | --- | --- | --- | --- | --- | --- | --- | --- | --- | --- | --- | --- | --- | --- | --- |
| WDR61 (UniProt Q9GZS3) | inactive: -0.011 | inactive: -0.009 | inactive: 0.02 | inactive: -0.025 | inactive: -0.029 | inactive: -0.03 | inactive: 0.031 | inactive: 0.012 | inactive: 0.023 | inactive: -0.036 | inactive: 0.035 | inactive: -0.016 | inactive: 0.049 | inactive: 0.073 | inactive: 0.011 | inactive: 0.009 | inactive: -0.001 | inactive: 0.027 | inactive: -0.016 | inactive: 0.034 |
| VPS41 (UniProt P49754) | inactive: 0.032 | inactive: 0.073 | inactive: -0.029 | inactive: 0.062 | inactive: -0.003 | inactive: 0.036 | inactive: -0.033 | inactive: -0.025 | inactive: 0.049 | inactive: -0.008 | inactive: -0.019 | inactive: 0.007 | inactive: 0.015 | inactive: 0.016 | inactive: 0.003 | inactive: 0.024 | inactive: 0.014 | inactive: 0.005 | inactive: 0.047 | inactive: 0.013 |
| WASF1 (UniProt Q92558) | inactive: 0.032 | inactive: -0.025 | inactive: 0.107 | inactive: -0.025 | inactive: -0.061 | inactive: -0.017 | inactive: -0.021 | inactive: -0.09 | inactive: 0.019 | inactive: 0.013 | inactive: -0.018 | inactive: -0.01 | inactive: -0.044 | inactive: 0.02 | inactive: -0.015 | inactive: 0.063 | inactive: -0.065 | inactive: 0.065 | inactive: -0.027 | inactive: -0.045 |
| WIPF3 (UniProt A6NGB9) | inactive: -0.018 | inactive: 0.09 | inactive: 0.016 | inactive: -0.001 | inactive: -0.029 | inactive: -0.007 | inactive: 0.007 | inactive: 0.052 | inactive: 0.097 | inactive: -0.012 | inactive: 0.009 | inactive: -0.021 | inactive: 0.015 | inactive: -0.032 | inactive: -0.025 | inactive: -0.004 | inactive: 0.032 | inactive: -0.023 | inactive: -0.026 | inactive: -0.02 |
| WDR5 (UniProt P61964) | inactive: -0.018 | inactive: 0.015 | inactive: 0.02 | inactive: -0.022 | inactive: -0.036 | inactive: 0.019 | inactive: 0.025 | inactive: -0.033 | inactive: -0.014 | inactive: 0.043 | inactive: 0.11 | inactive: -0.04 | inactive: 0.096 | inactive: -0.016 | inactive: 0.021 | inactive: -0.011 | inactive: 0.025 | inactive: 0.028 | inactive: -0.025 | inactive: 0.028 |
| WDR74 (UniProt Q6RFH5) | inactive: 0.025 | inactive: 0.011 | inactive: -0.016 | inactive: -0.026 | inactive: -0.015 | inactive: -0.069 | inactive: 0.019 | inactive: -0.034 | inactive: 0.063 | inactive: 0.033 | inactive: -0.009 | inactive: 0.03 | inactive: 0.018 | inactive: 0.066 | inactive: 0.06 | inactive: -0.003 | inactive: -0.036 | inactive: -0.001 | inactive: -0.005 | inactive: 0.052 |
| WRN (UniProt Q14191) | inactive: -0.003 | inactive: -0.048 | inactive: 0.005 | inactive: 0.006 | inactive: 0.057 | inactive: 0.011 | inactive: -0.077 | inactive: 0.02 | inactive: -0.012 | inactive: -0.013 | inactive: 0.02 | inactive: -0.008 | inactive: 0.021 | inactive: -0.055 | inactive: -0.016 | inactive: 0.023 | inactive: 0.019 | inactive: -0.016 | inactive: 0.016 | inactive: -0.048 |
| VPS13C (UniProt Q709C8) | inactive: -0.007 | inactive: -0.003 | inactive: 0.038 | inactive: 0.008 | inactive: 0.017 | inactive: -0.013 | inactive: -0.021 | inactive: 0.042 | inactive: -0.012 | inactive: 0.004 | inactive: -0.011 | inactive: 0.005 | inactive: 0.02 | inactive: 0.006 | inactive: -0.001 | active: 0.251 | inactive: -0.066 | inactive: 0.041 | inactive: -0.007 | inactive: -0.053 |
| WDFY1 (UniProt Q8IWB7) | inactive: -0.016 | inactive: -0.014 | inactive: 0.073 | inactive: -0.006 | inactive: -0.013 | inactive: -0.011 | inactive: 0.019 | inactive: -0.028 | inactive: -0.016 | inactive: 0.023 | inactive: -0.042 | inactive: -0.003 | inactive: 0.032 | inactive: -0.032 | inactive: -0.072 | inactive: -0.053 | inactive: 0.01 | inactive: 0.059 | inactive: 0.061 | inactive: -0.042 |
| XPA (UniProt P23025) | inactive: -0.018 | inactive: -0.027 | inactive: 0.061 | inactive: 0.013 | inactive: -0.109 | inactive: 0.051 | inactive: -0.055 | inactive: -0.027 | inactive: 0.077 | inactive: -0.048 | inactive: 0.067 | inactive: 0.142 | inactive: 0.019 | inactive: 0 | inactive: -0.051 | inactive: -0.018 | inactive: -0.086 | inactive: 0.132 | inactive: -0.021 | inactive: 0.064 |
| WDR4 (UniProt P57081) | inactive: 0.014 | inactive: -0.002 | inactive: 0.041 | inactive: 0.002 | inactive: 0.001 | inactive: -0.007 | inactive: -0.001 | inactive: -0.018 | inactive: 0.02 | inactive: -0.008 | inactive: 0.022 | inactive: -0.031 | inactive: 0 | inactive: 0 | inactive: -0.01 | inactive: -0.032 | inactive: -0.037 | inactive: 0.036 | inactive: -0.015 | inactive: 0.003 |
| WDR13 (UniProt Q9H1Z4) | inactive: -0.053 | inactive: -0.048 | inactive: -0.001 | inactive: 0.084 | inactive: -0.032 | inactive: 0.024 | inactive: 0.092 | inactive: -0.021 | inactive: 0.039 | inactive: -0.054 | inactive: 0.031 | inactive: 0.037 | inactive: 0.092 | inactive: -0.053 | inactive: -0.031 | inactive: 0.017 | inactive: -0.031 | inactive: 0.048 | inactive: -0.004 | inactive: -0.008 |
| VPS25 (UniProt Q9BRG1) | inactive: 0.022 | inactive: 0.078 | inactive: 0.005 | inactive: 0.026 | inactive: -0.004 | inactive: -0.039 | inactive: -0.035 | inactive: 0.038 | inactive: 0.037 | inactive: 0.015 | inactive: -0.016 | inactive: -0.006 | inactive: 0.008 | inactive: -0.028 | inactive: 0.022 | inactive: -0.022 | inactive: -0.024 | inactive: -0.014 | inactive: -0.003 | inactive: 0.004 |
| VKORC1 (UniProt Q9BQB6) | inactive: 0.012 | inactive: -0.053 | inactive: -0.11 | inactive: -0.038 | inactive: -0.038 | inactive: 0.016 | inactive: 0.011 | inactive: -0.015 | inactive: 0.115 | inactive: -0.009 | inactive: -0.041 | inactive: -0.056 | inactive: -0.012 | inactive: -0.078 | inactive: 0.019 | inactive: 0.025 | inactive: -0.003 | inactive: 0.195 | inactive: 0.03 | inactive: -0.108 |
| WBP2 (UniProt Q969T9) | inactive: 0.014 | inactive: -0.002 | inactive: 0.011 | inactive: -0.002 | inactive: -0.019 | inactive: 0.037 | inactive: 0.021 | inactive: 0.01 | inactive: -0.009 | inactive: -0.028 | inactive: 0.028 | inactive: -0.027 | inactive: -0.052 | inactive: 0.013 | inactive: 0.015 | inactive: -0.003 | inactive: -0.032 | inactive: -0.039 | inactive: -0.015 | inactive: -0.03 |
| VPS8 (UniProt Q8N3P4) | inactive: 0.04 | inactive: -0.006 | inactive: -0.059 | inactive: 0.036 | inactive: 0.028 | inactive: 0.164 | inactive: -0.045 | inactive: 0.01 | inactive: 0.026 | inactive: 0.074 | inactive: -0.012 | inactive: -0.003 | inactive: 0.035 | inactive: -0.05 | inactive: -0.02 | inactive: -0.022 | inactive: -0.043 | inactive: 0.024 | inactive: -0.042 | inactive: -0.006 |

Quoted at random: 2 entries already listed, in no set order.

| Target | log2 fold change (erlotinib) | log2 fold change [1] | log2 fold change [2] | log2 fold change [3] | log2 fold change [4] | log2 fold change [5] | log2 fold change [6] | log2 fold change [7] | log2 fold change [8] | log2 fold change (IRAK-1-4 Inhibitor I) | log2 fold change (ibrutinib) | log2 fold change [9] | log2 fold change (ralimetinib) | log2 fold change [10] | log2 fold change [11] | log2 fold change [12] | log2 fold change [13] | log2 fold change [14] | log2 fold change [15] | log2 fold change [16] |
| --- | --- | --- | --- | --- | --- | --- | --- | --- | --- | --- | --- | --- | --- | --- | --- | --- | --- | --- | --- | --- |
| VKORC1 (UniProt Q9BQB6) | inactive: 0.012 | inactive: -0.053 | inactive: -0.11 | inactive: -0.038 | inactive: -0.038 | inactive: 0.016 | inactive: 0.011 | inactive: -0.015 | inactive: 0.115 | inactive: -0.009 | inactive: -0.041 | inactive: -0.056 | inactive: -0.012 | inactive: -0.078 | inactive: 0.019 | inactive: 0.025 | inactive: -0.003 | inactive: 0.195 | inactive: 0.03 | inactive: -0.108 |
| VPS41 (UniProt P49754) | inactive: 0.032 | inactive: 0.073 | inactive: -0.029 | inactive: 0.062 | inactive: -0.003 | inactive: 0.036 | inactive: -0.033 | inactive: -0.025 | inactive: 0.049 | inactive: -0.008 | inactive: -0.019 | inactive: 0.007 | inactive: 0.015 | inactive: 0.016 | inactive: 0.003 | inactive: 0.024 | inactive: 0.014 | inactive: 0.005 | inactive: 0.047 | inactive: 0.013 |
